Paper doi:10.1101/2020.04.16.045708 (bioRxiv, 2020)
Results are given in words; binding and its absence hold for the method and conditions named. Blank lines part the entries; values can stand above or below the binder they belong to.

Columns and labels:
Assay in all cases: pull-down
[1] = target: T1, C9ORF72 alone, bait of the pull-down (human) (UniProt Q96LT7)
T1 sequence: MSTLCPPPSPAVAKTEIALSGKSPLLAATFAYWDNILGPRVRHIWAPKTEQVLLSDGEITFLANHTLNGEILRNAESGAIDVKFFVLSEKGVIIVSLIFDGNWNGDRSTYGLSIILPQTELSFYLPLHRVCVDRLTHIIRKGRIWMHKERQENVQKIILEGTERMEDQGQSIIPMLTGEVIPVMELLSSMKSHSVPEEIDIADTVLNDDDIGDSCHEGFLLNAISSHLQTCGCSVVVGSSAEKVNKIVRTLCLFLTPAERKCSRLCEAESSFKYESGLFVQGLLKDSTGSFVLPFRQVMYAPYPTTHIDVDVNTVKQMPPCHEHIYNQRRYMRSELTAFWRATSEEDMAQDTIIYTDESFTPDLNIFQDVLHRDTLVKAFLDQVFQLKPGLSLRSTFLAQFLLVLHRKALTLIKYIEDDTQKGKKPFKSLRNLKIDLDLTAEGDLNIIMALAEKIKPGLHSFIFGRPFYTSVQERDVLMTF

[2] = target: T2, SMCR8^Longin alone, bait of the pull-down (human) (UniProt Q8TEV9)
T2 sequence: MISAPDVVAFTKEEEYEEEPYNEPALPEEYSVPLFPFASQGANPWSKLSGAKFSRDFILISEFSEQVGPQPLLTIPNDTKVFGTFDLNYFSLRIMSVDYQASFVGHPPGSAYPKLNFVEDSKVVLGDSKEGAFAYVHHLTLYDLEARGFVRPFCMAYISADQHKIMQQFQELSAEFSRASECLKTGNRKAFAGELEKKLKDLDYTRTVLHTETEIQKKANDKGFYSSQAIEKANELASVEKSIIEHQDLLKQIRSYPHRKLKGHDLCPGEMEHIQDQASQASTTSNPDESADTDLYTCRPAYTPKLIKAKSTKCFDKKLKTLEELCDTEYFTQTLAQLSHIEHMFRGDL

[3] = target: T3, C9ORF72 alone, bait of the pull-down (human), Q96LT7; details: remark: other sources report otherwise
T3 chain: T1 sequence

binding [1]: no binding (tested: 20 μM)
binding [2]: no binding (tested: 20 μM)
B1: WDR41^ΔC (domain or fragment, UniProt Q9HAD4 1-435)
chain: MLRWLIGGGREPQGLAEKSPLQTIGEEQTQNPYTELLVLKAHHDIVRFLVQLDDYRFASAGDDGIVVVWNAQTGEKLLELNGHTQKITAIITFPSLESCEEKNQLILTASADRTVIVWDGDTTRQVQRISCFQSTVKCLTVLQRLDVWLSGGNDLCVWNRKLDLLCKTSHLSDTGISALVEIPKNCVVAAVGKELIIFRLVAPTEGSLEWDILEVKRLLDHQDNILSLINVNDLSFVTGSHVGELIIWDALDWTMQAYERNFWDPSPQLDTQQEIKLCQKSNDISIHHFTCDEENVFAAVGRGLYVYSLQMKRVIACQKTAHDSNVLHVARLPNRQLISCSEDGSVRIWELREKQQLAAEPVPTGFFNMWGFGRVSKQASQPVKKQQENATSCSLELIGDLIGHSSSVEMFLYFEDHGLVTCSADHLIILWKNGE

binding [3]: no binding (tested: 20 μM)
B2: WDR41 (WD40 repeat-containing protein 41), Q9HAD4 1-459 (protein)
chain: MLRWLIGGGREPQGLAEKSPLQTIGEEQTQNPYTELLVLKAHHDIVRFLVQLDDYRFASAGDDGIVVVWNAQTGEKLLELNGHTQKITAIITFPSLESCEEKNQLILTASADRTVIVWDGDTTRQVQRISCFQSTVKCLTVLQRLDVWLSGGNDLCVWNRKLDLLCKTSHLSDTGISALVEIPKNCVVAAVGKELIIFRLVAPTEGSLEWDILEVKRLLDHQDNILSLINVNDLSFVTGSHVGELIIWDALDWTMQAYERNFWDPSPQLDTQQEIKLCQKSNDISIHHFTCDEENVFAAVGRGLYVYSLQMKRVIACQKTAHDSNVLHVARLPNRQLISCSEDGSVRIWELREKQQLAAEPVPTGFFNMWGFGRVSKQASQPVKKQQENATSCSLELIGDLIGHSSSVEMFLYFEDHGLVTCSADHLIILWKNGERESGLRSLRLFQKLEENGDLYLAV

binding [2]: no binding (tested: 20 μM)
B3: WDR41 (WD40 repeat-containing protein 41) (natural protein)
chain: B2 chain
